The values below come from US20230265175A1.

Test [1] addresses T1, pSer412Cys (74AXY).
T1 sequence (peptide, phosphoserine as printed, NV(pS)STGSC): NVSSTGSC
The experiment in a line: peptide-coated ELISA (peptide 74AXY, OD405).

In test [2] the target is T1, pSer412Cys (74AXY). The test can be described thus: peptide-coated ELISA.

Results are given in words; binding and its absence hold for the method and conditions named. Where a sequence is shown, tags or fusion partners need not be part of it.

B1: V5-AFM-hIgG4-S228P (antibody, V domains shown)
VH: EVQLVESGGGLVQPGGSLRLSCAASGFTFSSFALNWVRQAPGKGLEWVGHIRSKTNNYVTFYAASVKGRFTVSRDDSQNTAYLQMNSLKTEDTATYYCVRRGPRDSWFGYWGQGTLVTVSS
VL: DIVMTQSPLSLPVTLGEPASISCRSSQKIVHRNANTYLEWYLQKPGQSPQLLIYTVSNRFSGVPDRFSGSGSGTDFTLKISRVEAEDLGVYYCFQGSYLPLTFGGGTKVEIKR
With B1, the binding entry was “no binding (tested: 10 µg/ml)” in test [1] and “no binding (tested: 10 µg/ml top concentration)” in test [2].
